This test deals with sperm specific antigen 2 (SSFA2), endogenous in human testes (human (endogenous in human testes)) (UniProt P28290). As to the kind of experiment: affinity purification with mass spectrometry; immunoprecipitation with the SSFA2 primary antibody from total proteins of normal human testes, in-gel digestion, LC-MS/MS.

Sequences of proteins named here, by UniProt entry; tags and fusion partners are left off.
UniProt P28290: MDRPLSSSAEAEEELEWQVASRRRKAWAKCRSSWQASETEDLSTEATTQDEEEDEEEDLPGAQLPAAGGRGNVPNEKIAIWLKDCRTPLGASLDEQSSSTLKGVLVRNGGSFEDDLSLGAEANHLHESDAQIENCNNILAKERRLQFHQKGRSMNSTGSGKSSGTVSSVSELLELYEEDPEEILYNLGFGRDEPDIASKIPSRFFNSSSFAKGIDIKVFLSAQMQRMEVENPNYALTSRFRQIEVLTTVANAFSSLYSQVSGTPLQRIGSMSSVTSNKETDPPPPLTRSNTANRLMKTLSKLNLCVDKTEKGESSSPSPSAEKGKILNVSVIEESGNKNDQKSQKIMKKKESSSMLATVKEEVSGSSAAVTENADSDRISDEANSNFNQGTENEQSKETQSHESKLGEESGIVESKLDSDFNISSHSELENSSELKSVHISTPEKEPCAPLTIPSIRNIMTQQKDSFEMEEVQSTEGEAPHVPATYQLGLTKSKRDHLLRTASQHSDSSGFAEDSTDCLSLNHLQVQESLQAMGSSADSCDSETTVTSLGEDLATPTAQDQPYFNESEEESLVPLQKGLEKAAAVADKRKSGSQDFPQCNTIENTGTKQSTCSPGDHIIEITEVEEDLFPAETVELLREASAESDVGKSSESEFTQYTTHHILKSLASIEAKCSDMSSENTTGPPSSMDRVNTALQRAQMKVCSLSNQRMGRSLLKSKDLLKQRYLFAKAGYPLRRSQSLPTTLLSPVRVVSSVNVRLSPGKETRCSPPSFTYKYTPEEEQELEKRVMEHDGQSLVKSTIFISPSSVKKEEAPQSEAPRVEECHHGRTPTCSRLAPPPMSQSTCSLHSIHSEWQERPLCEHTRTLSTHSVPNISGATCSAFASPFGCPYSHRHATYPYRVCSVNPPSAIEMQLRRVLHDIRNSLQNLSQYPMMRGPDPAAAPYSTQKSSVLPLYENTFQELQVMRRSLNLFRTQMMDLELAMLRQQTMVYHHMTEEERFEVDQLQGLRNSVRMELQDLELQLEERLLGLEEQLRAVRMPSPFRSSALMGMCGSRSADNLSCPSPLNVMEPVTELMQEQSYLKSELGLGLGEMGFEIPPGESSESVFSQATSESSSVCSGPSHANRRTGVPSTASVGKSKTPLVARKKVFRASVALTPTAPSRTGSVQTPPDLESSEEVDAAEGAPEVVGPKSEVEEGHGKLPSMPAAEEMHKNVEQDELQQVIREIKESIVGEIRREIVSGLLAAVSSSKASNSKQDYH

No constants are given. Whether binding was seen depends on the method and setting. Binding seen in cells or lysates may run through a third protein. Here binding means that the protein was enriched with, or labelled near, the bait; the list need not be complete. Tags and fused reporters may be left off the sequences shown.

B1: GSTM3, endogenous in human testes (protein, UniProt P21266 1-225)
chain: MSCESSMVLGYWDIRGLAHAIRLLLEFTDTSYEEKRYTCGEAPDYDRSQWLDVKFKLDLDFPNLPYLLDGKNKITQSNAILRYIARKHNMCGETEEEKIRVDIIENQVMDFRTQLIRLCYSSDHEKLKPQYLEELPGQLKQFSMFLGKFSWFAGEKLTFVDFLTYDILDQNRIFDPKCLDEFPNLKAFMCRFEALEKIAAYLQSDQFCKMPINNKMAQWGNKPVC
Regarding B1, the binding entry is recorded as “binds”.
